Results from article PMC5913281.
These are yes or no findings as the source states them, for the method shown. Binding seen in cells or lysates may run through a third protein. Some binding calls cover weakened binding; strength is not graded here.

Target: ErbB2/HER2 (human (endogenous in MKN45)) (UniProt P04626)
Test: co-IP; endogenous proteins in MKN45 whole cell extracts; lysis buffer 50 mM Tris (pH 7.4), 100 mM NaCl, 0.1 mM EDTA; immunoprecipitation with anti-SOS1 or anti-HER2 antibody (normal rabbit IgG as control) at 4 °C overnight, Protein G Sepharose; immunoblot for HER2 and SOS1

binding: binds
Substance: son of sevenless homolog 1 (SOS1) (from UniProt Q07889 1-1333)
